According to the supplement of paper PMC12823440, “Inhibitors supercharge kinase turnover through native proteolytic circuits” (Nature, 2025):
Where a name gives a salt, the structure may show the parent alone. The list shows a part of the results. Hit calls seldom repeat between salt and free forms of one compound.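 Kinases were expressed as nanoluciferase fusions in K562 cells and luminescence was read every 4 h between 2 and 18 h as percent of control, DMSO set to 100% and a positive control to 0%. A time point counts as decreased when the signal drops significantly (2 sigma). The hit call is the authors' own, does not follow from the count of time points alone, and its rule is not shown.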

Sequences of proteins named here, by UniProt entry; tags and fusion partners are left off. A change or cut given only in a name is not applied to a line headed by its entry.
UniProt O75460: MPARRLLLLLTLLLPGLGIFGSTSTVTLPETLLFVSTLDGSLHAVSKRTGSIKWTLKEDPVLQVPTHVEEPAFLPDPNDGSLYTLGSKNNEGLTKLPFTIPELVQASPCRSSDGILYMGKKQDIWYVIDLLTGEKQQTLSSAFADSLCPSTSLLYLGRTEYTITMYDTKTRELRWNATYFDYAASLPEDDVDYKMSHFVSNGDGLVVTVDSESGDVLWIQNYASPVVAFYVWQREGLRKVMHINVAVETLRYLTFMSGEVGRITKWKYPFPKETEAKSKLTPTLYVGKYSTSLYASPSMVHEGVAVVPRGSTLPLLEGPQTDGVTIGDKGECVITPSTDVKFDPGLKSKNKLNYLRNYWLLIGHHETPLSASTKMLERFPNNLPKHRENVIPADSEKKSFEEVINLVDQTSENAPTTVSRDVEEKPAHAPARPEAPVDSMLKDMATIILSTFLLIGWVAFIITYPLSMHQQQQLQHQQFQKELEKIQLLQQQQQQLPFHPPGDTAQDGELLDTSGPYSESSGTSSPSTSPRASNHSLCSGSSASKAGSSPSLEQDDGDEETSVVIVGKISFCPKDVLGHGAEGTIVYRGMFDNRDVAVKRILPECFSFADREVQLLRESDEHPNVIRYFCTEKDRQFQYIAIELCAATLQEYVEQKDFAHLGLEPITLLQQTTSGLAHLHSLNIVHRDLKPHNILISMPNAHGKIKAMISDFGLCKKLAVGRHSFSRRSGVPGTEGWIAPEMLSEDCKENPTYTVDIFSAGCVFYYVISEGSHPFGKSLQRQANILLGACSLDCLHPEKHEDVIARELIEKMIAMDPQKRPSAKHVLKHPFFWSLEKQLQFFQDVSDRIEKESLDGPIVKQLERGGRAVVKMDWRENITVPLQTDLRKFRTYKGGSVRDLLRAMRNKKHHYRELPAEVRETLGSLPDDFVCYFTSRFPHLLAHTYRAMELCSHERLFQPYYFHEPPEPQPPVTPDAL
UniProt P11362, whole entry, looked up: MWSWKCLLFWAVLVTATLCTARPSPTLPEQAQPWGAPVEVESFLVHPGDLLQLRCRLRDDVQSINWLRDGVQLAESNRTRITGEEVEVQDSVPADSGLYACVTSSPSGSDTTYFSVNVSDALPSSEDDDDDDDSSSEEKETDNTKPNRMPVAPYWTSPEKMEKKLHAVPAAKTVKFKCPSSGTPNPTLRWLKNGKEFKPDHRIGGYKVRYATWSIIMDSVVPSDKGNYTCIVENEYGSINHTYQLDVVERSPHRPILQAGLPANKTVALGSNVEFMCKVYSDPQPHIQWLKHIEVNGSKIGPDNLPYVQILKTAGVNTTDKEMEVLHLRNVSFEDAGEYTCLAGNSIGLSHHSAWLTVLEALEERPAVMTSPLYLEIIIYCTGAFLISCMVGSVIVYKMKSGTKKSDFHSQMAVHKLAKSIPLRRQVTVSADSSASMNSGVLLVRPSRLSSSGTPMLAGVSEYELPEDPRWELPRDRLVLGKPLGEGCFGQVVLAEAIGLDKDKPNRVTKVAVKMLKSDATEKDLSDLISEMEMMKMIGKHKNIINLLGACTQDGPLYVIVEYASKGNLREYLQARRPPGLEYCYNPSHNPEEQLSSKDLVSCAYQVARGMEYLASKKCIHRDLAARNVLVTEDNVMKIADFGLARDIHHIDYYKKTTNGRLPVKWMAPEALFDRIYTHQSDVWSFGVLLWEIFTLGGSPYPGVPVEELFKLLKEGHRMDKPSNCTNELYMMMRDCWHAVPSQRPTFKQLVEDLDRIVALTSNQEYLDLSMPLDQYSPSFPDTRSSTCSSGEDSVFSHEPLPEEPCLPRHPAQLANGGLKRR
UniProt P21802, whole entry, looked up: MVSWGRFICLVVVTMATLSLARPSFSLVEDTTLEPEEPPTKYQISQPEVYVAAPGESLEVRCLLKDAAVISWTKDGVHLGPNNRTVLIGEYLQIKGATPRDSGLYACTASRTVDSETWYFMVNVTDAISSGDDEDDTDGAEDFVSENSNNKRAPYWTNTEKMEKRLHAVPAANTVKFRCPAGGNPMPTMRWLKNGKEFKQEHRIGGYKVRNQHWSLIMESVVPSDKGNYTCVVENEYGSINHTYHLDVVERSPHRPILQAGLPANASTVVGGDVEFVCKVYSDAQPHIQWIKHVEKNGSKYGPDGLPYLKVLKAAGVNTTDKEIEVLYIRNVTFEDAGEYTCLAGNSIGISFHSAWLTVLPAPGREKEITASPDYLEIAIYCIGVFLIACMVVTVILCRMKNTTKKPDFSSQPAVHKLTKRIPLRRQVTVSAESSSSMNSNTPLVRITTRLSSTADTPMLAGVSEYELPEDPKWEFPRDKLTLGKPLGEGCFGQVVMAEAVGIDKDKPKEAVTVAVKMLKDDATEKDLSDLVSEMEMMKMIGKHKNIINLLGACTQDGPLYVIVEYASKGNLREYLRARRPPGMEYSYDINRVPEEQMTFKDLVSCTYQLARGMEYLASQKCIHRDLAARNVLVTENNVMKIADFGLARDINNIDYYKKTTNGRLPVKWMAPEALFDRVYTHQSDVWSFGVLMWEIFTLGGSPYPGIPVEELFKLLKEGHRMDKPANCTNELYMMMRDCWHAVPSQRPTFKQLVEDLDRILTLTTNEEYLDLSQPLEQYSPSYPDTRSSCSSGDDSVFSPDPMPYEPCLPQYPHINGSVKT
UniProt P22607, whole entry, looked up: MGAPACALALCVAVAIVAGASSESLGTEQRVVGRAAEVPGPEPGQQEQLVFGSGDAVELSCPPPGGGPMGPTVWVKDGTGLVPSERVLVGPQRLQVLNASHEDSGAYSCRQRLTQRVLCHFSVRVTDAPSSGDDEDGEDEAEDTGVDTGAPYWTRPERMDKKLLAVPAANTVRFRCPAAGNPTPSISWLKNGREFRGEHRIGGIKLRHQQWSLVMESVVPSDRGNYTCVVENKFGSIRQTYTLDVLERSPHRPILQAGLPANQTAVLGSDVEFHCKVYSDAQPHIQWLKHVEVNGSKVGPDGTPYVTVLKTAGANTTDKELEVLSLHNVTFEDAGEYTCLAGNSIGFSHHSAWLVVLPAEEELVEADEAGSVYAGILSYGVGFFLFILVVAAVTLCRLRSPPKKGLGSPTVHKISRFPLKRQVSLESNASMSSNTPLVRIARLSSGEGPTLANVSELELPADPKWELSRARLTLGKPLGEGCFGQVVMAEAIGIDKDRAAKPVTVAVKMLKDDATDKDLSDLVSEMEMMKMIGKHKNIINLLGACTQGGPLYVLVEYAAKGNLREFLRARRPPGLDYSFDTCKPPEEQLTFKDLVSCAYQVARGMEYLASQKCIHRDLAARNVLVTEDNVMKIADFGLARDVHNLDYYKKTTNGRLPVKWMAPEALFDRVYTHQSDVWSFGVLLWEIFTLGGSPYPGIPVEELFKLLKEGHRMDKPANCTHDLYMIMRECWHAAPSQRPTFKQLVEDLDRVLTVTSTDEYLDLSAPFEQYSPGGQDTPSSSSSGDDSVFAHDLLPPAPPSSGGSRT
UniProt P36888, whole entry: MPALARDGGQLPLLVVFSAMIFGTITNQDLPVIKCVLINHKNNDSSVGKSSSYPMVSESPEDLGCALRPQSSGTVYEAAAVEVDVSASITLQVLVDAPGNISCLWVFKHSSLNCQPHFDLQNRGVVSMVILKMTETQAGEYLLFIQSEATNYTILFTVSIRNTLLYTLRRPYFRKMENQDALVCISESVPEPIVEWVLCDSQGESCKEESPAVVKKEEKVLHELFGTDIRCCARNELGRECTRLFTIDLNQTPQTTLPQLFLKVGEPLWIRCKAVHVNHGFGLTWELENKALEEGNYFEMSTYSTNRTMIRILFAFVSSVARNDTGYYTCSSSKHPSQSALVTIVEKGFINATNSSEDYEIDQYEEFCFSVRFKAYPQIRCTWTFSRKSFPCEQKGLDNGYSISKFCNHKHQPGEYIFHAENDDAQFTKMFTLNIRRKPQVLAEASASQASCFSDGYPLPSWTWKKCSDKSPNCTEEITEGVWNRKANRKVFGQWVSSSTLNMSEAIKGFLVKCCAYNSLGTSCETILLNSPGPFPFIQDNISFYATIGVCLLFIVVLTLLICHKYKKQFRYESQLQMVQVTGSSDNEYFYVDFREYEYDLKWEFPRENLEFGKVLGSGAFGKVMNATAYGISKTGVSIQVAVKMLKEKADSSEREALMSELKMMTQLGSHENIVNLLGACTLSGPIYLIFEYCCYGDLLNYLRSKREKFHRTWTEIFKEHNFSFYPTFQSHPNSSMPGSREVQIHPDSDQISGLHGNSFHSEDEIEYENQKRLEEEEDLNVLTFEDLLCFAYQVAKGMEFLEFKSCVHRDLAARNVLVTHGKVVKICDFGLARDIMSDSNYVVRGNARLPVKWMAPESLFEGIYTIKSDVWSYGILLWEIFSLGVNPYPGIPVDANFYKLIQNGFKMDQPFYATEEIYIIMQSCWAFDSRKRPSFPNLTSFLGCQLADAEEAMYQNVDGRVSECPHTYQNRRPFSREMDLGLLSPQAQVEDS
UniProt P49840: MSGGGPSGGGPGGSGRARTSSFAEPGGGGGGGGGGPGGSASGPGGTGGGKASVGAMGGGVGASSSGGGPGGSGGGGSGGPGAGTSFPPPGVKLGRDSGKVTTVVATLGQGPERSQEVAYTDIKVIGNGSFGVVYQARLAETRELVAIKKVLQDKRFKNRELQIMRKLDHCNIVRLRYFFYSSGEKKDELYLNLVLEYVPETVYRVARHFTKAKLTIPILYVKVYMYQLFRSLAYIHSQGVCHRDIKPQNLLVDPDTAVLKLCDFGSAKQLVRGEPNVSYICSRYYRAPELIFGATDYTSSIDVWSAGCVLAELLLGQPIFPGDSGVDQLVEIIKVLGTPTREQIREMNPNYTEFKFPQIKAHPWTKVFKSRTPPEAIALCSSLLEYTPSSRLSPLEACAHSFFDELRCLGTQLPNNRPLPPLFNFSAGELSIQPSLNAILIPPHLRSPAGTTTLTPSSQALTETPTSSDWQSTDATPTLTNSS
UniProt P14616: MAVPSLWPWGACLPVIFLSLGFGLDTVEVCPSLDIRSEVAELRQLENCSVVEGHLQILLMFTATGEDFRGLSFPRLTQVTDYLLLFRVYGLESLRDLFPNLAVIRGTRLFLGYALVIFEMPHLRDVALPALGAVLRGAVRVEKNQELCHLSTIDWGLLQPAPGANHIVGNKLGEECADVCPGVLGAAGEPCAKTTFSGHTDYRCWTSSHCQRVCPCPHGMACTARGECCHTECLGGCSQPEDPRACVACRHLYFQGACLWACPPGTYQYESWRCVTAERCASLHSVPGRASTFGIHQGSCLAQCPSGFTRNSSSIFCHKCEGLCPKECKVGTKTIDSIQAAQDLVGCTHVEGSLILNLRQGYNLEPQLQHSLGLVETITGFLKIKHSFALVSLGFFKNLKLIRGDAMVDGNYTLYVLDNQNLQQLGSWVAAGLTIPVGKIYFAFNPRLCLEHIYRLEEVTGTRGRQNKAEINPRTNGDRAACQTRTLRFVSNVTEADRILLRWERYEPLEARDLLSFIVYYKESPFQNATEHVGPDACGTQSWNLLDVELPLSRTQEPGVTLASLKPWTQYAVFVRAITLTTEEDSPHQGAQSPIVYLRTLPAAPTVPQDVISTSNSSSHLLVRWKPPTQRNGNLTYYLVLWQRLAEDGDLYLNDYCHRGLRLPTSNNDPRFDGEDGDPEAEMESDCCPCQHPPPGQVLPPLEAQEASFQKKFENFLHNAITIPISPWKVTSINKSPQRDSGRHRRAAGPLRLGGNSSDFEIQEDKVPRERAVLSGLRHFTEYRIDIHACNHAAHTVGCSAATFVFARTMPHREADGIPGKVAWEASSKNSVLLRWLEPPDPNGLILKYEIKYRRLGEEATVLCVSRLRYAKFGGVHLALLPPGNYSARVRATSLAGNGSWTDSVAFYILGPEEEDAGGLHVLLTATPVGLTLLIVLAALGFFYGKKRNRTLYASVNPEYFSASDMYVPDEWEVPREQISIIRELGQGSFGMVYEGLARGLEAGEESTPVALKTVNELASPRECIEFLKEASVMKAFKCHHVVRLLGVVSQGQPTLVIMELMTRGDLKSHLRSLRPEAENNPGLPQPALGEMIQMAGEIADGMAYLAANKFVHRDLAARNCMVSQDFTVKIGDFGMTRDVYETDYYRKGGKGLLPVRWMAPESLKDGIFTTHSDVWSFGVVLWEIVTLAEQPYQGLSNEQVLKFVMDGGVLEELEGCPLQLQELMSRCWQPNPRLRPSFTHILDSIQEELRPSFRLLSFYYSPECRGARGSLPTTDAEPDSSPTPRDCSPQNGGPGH

Assays:
Test in all cases: kinase-Nluc reporter destabilization hit call (1 = scored as downregulated) (binary); higher = compound decreases kinase abundance
Conditions in all cases: K562, 2-18 h
EGFR = EGFR (UniProt P00533)
EGFR_G719S = EGFR_G719S (UniProt P00533)
EGFR_G719S_T790M = EGFR_G719S_T790M (UniProt P00533)
EGFR_L718V = EGFR_L718V (UniProt P00533)
EGFR_L858R = EGFR_L858R (UniProt P00533)
EGFR_L861Q = EGFR_L861Q (UniProt P00533)
EGFR_T790M = EGFR_T790M (UniProt P00533)
EPHA2 = EPHA2 (UniProt P29317)
ERBB3 = ERBB3 (UniProt P21860)
[1] = biological target: ERBB4_R711C (clone: ERBB4_mut) (UniProt Q15303)
ERN1 = ERN1 (UniProt O75460)
FGFR1 = FGFR1 (UniProt P11362)
FGFR2 = FGFR2 (UniProt P21802)
FGFR3 = FGFR3 (UniProt P22607)
FGR = FGR (UniProt P09769)
FLT3 = FLT3 (UniProt P36888)
FYN = FYN (UniProt P06241)
GSK3A = GSK3A (UniProt P49840)
HER2 = HER2 (UniProt P04626)
INSRR = INSRR (UniProt P14616)

Measured: kinase-Nluc reporter destabilization hit call

CC(C)Nc1cc(-c2c[nH]c(C(=O)N[C@H](CO)c3cccc(Cl)c3)c2)c(Cl)cn1 [Ulixertinib (hydrochloride)]
inactive: EGFR; 10 µM 0 | EGFR_G719S; 10 µM 0 | EGFR_G719S_T790M; 10 µM 0 | EGFR_L718V; 10 µM 0 | EGFR_L858R; 10 µM 0 | EGFR_L861Q; 10 µM 0 | EGFR_T790M; 10 µM 0 | EPHA2; 10 µM 0 | ERBB3; 10 µM 0 | [1]; 10 µM 0 | ERN1; 10 µM 0 | FGFR1; 10 µM 0 | FGFR2; 10 µM 0 | FGFR3; 10 µM 0 | FGR; 10 µM 0 | FLT3; 10 µM 0 | FYN; 10 µM 0 | GSK3A; 10 µM 0 | HER2; 10 µM 0 | INSRR; 10 µM 0

CC(C)Nc1cc(-c2c[nH]c(C(=O)N[C@H](CO)c3cccc(Cl)c3)c2)c(Cl)cn1 [Ulixertinib]
inactive: EGFR; 10 µM 0 | EGFR_G719S; 10 µM 0 | EGFR_G719S_T790M; 10 µM 0 | EGFR_L718V; 10 µM 0 | EGFR_L858R; 10 µM 0 | EGFR_L861Q; 10 µM 0 | EGFR_T790M; 10 µM 0 | EPHA2; 10 µM 0 | ERBB3; 10 µM 0 | [1]; 10 µM 0 | ERN1; 10 µM 0 | FGFR1; 10 µM 0 | FGFR2; 10 µM 0 | FGFR3; 10 µM 0 | FGR; 10 µM 0 | FLT3; 10 µM 0 | FYN; 10 µM 0 | GSK3A; 10 µM 0 | HER2; 10 µM 0 | INSRR; 10 µM 0

COc1ncc(F)cc1CNc1ccc(Cc2c[nH]c3ncc(C)cc23)c(F)n1 [PLX5622 (hemifumarate)]
inactive: EGFR; 10 µM 0 | EGFR_G719S; 10 µM 0 | EGFR_G719S_T790M; 10 µM 0 | EGFR_L718V; 10 µM 0 | EGFR_L858R; 10 µM 0 | EGFR_L861Q; 10 µM 0 | EGFR_T790M; 10 µM 0 | EPHA2; 10 µM 0 | ERBB3; 10 µM 0 | [1]; 10 µM 0 | ERN1; 10 µM 0 | FGFR1; 10 µM 0 | FGFR2; 10 µM 0 | FGFR3; 10 µM 0 | FGR; 10 µM 0 | FLT3; 10 µM 0 | FYN; 10 µM 0 | GSK3A; 10 µM 0 | HER2; 10 µM 0 | INSRR; 10 µM 0

COC(=O)[C@H](CC(C)C)NC(=O)c1ccc(NC[C@@H](N)CS)cc1-c1cccc2ccccc12 [GGTI298 (Trifluoroacetate)]
inactive: EGFR; 10 µM 0 | EGFR_G719S; 10 µM 0 | EGFR_G719S_T790M; 10 µM 0 | EGFR_L718V; 10 µM 0 | EGFR_L858R; 10 µM 0 | EGFR_L861Q; 10 µM 0 | EGFR_T790M; 10 µM 0 | EPHA2; 10 µM 0 | ERBB3; 10 µM 0 | [1]; 10 µM 0 | ERN1; 10 µM 0 | FGFR1; 10 µM 0 | FGFR2; 10 µM 0 | FGFR3; 10 µM 0 | FGR; 10 µM 0 | FLT3; 10 µM 0 | FYN; 10 µM 0 | GSK3A; 10 µM 0 | HER2; 10 µM 0 | INSRR; 10 µM 0

Reprinted from the results shown (2 entries):
COc1ncc(F)cc1CNc1ccc(Cc2c[nH]c3ncc(C)cc23)c(F)n1 [PLX5622 (hemifumarate)]
inactive: EGFR; 10 µM 0 | EGFR_G719S; 10 µM 0 | EGFR_G719S_T790M; 10 µM 0 | EGFR_L718V; 10 µM 0 | EGFR_L858R; 10 µM 0 | EGFR_L861Q; 10 µM 0 | EGFR_T790M; 10 µM 0 | EPHA2; 10 µM 0 | ERBB3; 10 µM 0 | [1]; 10 µM 0 | ERN1; 10 µM 0 | FGFR1; 10 µM 0 | FGFR2; 10 µM 0 | FGFR3; 10 µM 0 | FGR; 10 µM 0 | FLT3; 10 µM 0 | FYN; 10 µM 0 | GSK3A; 10 µM 0 | HER2; 10 µM 0 | INSRR; 10 µM 0

COC(=O)[C@H](CC(C)C)NC(=O)c1ccc(NC[C@@H](N)CS)cc1-c1cccc2ccccc12 [GGTI298 (Trifluoroacetate)]
inactive: EGFR; 10 µM 0 | EGFR_G719S; 10 µM 0 | EGFR_G719S_T790M; 10 µM 0 | EGFR_L718V; 10 µM 0 | EGFR_L858R; 10 µM 0 | EGFR_L861Q; 10 µM 0 | EGFR_T790M; 10 µM 0 | EPHA2; 10 µM 0 | ERBB3; 10 µM 0 | [1]; 10 µM 0 | ERN1; 10 µM 0 | FGFR1; 10 µM 0 | FGFR2; 10 µM 0 | FGFR3; 10 µM 0 | FGR; 10 µM 0 | FLT3; 10 µM 0 | FYN; 10 µM 0 | GSK3A; 10 µM 0 | HER2; 10 µM 0 | INSRR; 10 µM 0

Additional results

COc1cc2nccc(Oc3ccc(NC(=O)C4(C(=O)Nc5ccc(F)cc5)CC4)cc3)c2cc1OC [Cabozantinib]
inactive: EGFR; 2.5 µM 0 | EGFR_G719S; 2.5 µM 0 | EGFR_G719S_T790M; 2.5 µM 0 | EGFR_L718V; 2.5 µM 0 | EGFR_L858R; 2.5 µM 0 | EGFR_L861Q; 2.5 µM 0 | EGFR_T790M; 2.5 µM 0 | EPHA2; 2.5 µM 0 | ERBB3; 2.5 µM 0 | [1]; 2.5 µM 0 | ERN1; 2.5 µM 0 | FGFR1; 2.5 µM 0 | FGFR2; 2.5 µM 0 | FGFR3; 2.5 µM 0 | FGR; 2.5 µM 0 | FLT3; 2.5 µM 0 | FYN; 2.5 µM 0 | GSK3A; 2.5 µM 0 | HER2; 2.5 µM 0 | INSRR; 2.5 µM 0

COc1ccnc(C[S+]([O-])c2nc3cc(-n4cccc4)ccc3[nH]2)c1C (stereo not given) [Ilaprazole]
inactive: EGFR; 10 µM 0 | EGFR_G719S; 10 µM 0 | EGFR_G719S_T790M; 10 µM 0 | EGFR_L718V; 10 µM 0 | EGFR_L858R; 10 µM 0 | EGFR_L861Q; 10 µM 0 | EGFR_T790M; 10 µM 0 | EPHA2; 10 µM 0 | ERBB3; 10 µM 0 | [1]; 10 µM 0 | ERN1; 10 µM 0 | FGFR1; 10 µM 0 | FGFR2; 10 µM 0 | FGFR3; 10 µM 0 | FGR; 10 µM 0 | FLT3; 10 µM 0 | FYN; 10 µM 0 | GSK3A; 10 µM 0 | HER2; 10 µM 0 | INSRR; 10 µM 0

CC(=O)Nc1cccc(-n2c(=O)n(C3CC3)c(=O)c3c(Nc4ccc(I)cc4F)n(C)c(=O)c(C)c32)c1 [Trametinib]
inactive: EGFR; 10 µM 0 | EGFR_G719S; 10 µM 0 | EGFR_G719S_T790M; 10 µM 0 | EGFR_L718V; 10 µM 0 | EGFR_L858R; 10 µM 0 | EGFR_L861Q; 10 µM 0 | EGFR_T790M; 10 µM 0 | EPHA2; 10 µM 0 | ERBB3; 10 µM 0 | [1]; 10 µM 0 | ERN1; 10 µM 0 | FGFR1; 10 µM 0 | FGFR2; 10 µM 0 | FGFR3; 10 µM 0 | FGR; 10 µM 0 | FLT3; 10 µM 0 | FYN; 10 µM 0 | GSK3A; 10 µM 0 | HER2; 10 µM 0 | INSRR; 10 µM 0

CN1CCCN(C(=O)c2cccc(-c3ccc(/C=C4/C(=O)Nc5ccc(Cl)cc54)o3)c2)CC1
inactive: EGFR; 2.5 µM 0 | EGFR_G719S; 2.5 µM 0 | EGFR_G719S_T790M; 2.5 µM 0 | EGFR_L718V; 2.5 µM 0 | EGFR_L858R; 2.5 µM 0 | EGFR_L861Q; 2.5 µM 0 | EGFR_T790M; 2.5 µM 0 | EPHA2; 2.5 µM 0 | ERBB3; 2.5 µM 0 | [1]; 2.5 µM 0 | ERN1; 2.5 µM 0 | FGFR1; 2.5 µM 0 | FGFR2; 2.5 µM 0 | FGFR3; 2.5 µM 0 | FGR; 2.5 µM 0 | FLT3; 2.5 µM 0 | FYN; 2.5 µM 0 | GSK3A; 2.5 µM 0 | HER2; 2.5 µM 0 | INSRR; 2.5 µM 0

O=C(c1nn(-c2ccc(CN3CCOCC3)cc2)c2c1CS(=O)(=O)c1c(F)cccc1-2)N1CCOCC1
inactive: EGFR; 10 µM 0 | EGFR_G719S; 10 µM 0 | EGFR_G719S_T790M; 10 µM 0 | EGFR_L718V; 10 µM 0 | EGFR_L858R; 10 µM 0 | EGFR_L861Q; 10 µM 0 | EGFR_T790M; 10 µM 0 | EPHA2; 10 µM 0 | ERBB3; 10 µM 0 | [1]; 10 µM 0 | ERN1; 10 µM 0 | FGFR1; 10 µM 0 | FGFR2; 10 µM 0 | FGFR3; 10 µM 0 | FGR; 10 µM 0 | FLT3; 10 µM 0 | FYN; 10 µM 0 | GSK3A; 10 µM 0 | HER2; 10 µM 0 | INSRR; 10 µM 0
